Source: the supplement of paper PMC10849652
The other results are listed elsewhere or left out.

Amino acid sequences for entries named in this document (tags omitted). A change or cut given only in a name is not applied to a line headed by its entry.
UniProt O15439: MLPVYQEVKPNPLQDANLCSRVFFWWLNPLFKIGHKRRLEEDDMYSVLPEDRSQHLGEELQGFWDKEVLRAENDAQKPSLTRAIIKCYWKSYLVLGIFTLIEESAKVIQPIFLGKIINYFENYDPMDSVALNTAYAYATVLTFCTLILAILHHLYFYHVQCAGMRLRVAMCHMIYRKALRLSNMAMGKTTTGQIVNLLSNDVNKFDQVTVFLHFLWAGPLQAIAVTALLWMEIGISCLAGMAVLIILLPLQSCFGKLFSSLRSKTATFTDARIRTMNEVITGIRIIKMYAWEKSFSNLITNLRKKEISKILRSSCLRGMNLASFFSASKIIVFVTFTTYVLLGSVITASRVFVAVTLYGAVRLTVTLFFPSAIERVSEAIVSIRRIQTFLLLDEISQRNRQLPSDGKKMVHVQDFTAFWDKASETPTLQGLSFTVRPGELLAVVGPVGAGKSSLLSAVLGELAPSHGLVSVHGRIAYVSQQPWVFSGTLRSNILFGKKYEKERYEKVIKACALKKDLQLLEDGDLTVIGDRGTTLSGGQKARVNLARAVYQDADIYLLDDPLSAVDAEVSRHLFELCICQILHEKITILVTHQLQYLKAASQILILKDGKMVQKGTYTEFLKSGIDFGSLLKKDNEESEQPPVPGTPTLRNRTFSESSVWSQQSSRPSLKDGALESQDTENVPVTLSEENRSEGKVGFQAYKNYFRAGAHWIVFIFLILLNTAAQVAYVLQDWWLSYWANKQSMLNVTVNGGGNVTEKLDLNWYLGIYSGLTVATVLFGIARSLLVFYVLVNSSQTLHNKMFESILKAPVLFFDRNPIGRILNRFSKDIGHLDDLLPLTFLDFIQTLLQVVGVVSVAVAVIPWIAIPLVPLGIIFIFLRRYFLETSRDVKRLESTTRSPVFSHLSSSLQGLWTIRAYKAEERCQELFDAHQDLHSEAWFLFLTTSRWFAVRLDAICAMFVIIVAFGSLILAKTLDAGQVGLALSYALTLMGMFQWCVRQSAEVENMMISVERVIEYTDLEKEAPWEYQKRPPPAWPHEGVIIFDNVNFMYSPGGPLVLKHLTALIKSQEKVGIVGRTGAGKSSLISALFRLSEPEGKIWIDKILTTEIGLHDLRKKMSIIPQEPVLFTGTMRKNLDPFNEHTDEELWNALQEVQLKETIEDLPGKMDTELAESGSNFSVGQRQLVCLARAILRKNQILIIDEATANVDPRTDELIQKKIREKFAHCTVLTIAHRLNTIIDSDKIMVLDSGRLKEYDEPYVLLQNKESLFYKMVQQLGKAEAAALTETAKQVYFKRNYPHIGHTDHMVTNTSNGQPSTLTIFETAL
UniProt P33527: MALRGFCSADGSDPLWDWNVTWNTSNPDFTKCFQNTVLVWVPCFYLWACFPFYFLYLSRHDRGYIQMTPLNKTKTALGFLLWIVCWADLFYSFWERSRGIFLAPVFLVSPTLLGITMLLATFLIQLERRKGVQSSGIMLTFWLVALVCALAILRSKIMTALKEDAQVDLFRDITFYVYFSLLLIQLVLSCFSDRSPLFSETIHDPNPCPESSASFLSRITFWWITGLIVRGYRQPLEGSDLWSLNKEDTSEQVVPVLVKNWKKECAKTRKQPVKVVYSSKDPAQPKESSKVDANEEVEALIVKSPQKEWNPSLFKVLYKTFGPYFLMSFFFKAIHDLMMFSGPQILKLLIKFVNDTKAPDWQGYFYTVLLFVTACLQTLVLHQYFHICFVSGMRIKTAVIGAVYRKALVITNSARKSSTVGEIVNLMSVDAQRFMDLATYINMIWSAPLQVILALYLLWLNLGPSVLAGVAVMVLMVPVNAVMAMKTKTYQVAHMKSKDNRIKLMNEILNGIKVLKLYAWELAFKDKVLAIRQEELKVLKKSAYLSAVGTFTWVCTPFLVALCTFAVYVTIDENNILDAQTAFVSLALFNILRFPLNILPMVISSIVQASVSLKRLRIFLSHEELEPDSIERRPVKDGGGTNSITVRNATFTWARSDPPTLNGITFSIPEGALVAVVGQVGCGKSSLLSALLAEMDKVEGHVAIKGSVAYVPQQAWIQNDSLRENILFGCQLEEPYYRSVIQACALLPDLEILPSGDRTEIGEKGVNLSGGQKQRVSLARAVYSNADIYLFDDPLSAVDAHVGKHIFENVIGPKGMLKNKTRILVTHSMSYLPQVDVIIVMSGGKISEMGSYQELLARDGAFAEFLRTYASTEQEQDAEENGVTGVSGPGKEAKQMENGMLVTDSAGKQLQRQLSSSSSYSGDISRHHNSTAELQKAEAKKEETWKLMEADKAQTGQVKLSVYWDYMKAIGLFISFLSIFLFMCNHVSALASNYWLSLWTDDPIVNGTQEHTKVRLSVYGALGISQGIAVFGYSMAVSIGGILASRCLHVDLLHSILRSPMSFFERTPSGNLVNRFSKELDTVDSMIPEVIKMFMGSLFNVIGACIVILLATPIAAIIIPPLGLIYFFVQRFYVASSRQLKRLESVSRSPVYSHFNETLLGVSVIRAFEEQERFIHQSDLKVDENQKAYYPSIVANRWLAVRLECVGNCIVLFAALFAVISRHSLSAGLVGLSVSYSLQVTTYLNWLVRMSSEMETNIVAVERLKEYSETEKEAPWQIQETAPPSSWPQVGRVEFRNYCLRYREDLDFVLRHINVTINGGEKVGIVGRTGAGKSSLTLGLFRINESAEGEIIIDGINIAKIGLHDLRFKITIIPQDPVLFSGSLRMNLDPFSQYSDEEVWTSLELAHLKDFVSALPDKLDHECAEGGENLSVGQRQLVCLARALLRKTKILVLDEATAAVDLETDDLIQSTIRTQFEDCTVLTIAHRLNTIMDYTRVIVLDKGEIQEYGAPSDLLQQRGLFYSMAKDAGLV
UniProt P53396: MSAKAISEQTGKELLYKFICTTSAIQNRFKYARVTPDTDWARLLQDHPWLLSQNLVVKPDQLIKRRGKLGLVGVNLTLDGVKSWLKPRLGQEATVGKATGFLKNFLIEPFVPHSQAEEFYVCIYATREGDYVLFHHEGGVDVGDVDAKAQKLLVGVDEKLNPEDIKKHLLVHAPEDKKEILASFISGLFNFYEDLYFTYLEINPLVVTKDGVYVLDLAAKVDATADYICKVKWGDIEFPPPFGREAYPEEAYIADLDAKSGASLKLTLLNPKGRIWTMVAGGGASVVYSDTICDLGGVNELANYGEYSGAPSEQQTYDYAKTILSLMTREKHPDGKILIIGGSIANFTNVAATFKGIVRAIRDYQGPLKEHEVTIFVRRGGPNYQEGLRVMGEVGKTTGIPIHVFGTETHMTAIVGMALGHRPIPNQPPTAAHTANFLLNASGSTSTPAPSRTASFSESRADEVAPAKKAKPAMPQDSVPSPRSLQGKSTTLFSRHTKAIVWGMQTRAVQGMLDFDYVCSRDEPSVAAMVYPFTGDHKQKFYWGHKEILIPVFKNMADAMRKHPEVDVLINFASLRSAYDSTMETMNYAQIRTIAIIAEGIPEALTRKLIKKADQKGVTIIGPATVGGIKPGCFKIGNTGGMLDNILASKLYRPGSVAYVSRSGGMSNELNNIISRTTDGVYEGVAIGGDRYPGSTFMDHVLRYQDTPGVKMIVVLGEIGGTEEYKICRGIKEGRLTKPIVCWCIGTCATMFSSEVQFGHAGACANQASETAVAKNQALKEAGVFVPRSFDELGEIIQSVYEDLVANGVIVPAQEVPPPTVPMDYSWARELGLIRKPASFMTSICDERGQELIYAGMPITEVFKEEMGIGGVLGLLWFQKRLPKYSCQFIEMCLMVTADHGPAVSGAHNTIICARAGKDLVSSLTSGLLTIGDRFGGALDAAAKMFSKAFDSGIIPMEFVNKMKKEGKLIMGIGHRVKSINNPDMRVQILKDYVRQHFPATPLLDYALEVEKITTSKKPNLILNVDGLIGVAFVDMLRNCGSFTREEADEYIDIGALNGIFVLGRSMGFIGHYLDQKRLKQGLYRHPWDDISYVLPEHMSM
UniProt Q9Y312: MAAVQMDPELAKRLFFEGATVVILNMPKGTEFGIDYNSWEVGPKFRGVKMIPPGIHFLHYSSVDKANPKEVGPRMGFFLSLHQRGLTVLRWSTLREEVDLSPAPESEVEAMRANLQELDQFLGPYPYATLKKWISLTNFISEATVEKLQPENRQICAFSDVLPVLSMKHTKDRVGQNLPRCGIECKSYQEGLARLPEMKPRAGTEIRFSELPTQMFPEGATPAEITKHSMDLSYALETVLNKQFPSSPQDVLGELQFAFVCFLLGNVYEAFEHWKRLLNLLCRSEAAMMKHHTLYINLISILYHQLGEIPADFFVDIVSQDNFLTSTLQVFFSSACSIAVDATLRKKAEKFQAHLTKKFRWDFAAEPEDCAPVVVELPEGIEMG
UniProt Q6UWZ7: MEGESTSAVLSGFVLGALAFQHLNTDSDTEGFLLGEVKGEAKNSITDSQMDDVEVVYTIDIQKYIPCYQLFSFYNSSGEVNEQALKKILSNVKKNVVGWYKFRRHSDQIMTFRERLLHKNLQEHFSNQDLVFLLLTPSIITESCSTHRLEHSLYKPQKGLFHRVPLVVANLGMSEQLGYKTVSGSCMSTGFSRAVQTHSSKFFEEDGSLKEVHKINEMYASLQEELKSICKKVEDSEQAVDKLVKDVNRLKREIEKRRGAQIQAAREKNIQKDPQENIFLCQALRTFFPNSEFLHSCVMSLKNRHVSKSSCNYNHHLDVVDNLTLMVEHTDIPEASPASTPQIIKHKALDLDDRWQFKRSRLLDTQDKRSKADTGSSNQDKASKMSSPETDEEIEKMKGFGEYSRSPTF
UniProt P49748: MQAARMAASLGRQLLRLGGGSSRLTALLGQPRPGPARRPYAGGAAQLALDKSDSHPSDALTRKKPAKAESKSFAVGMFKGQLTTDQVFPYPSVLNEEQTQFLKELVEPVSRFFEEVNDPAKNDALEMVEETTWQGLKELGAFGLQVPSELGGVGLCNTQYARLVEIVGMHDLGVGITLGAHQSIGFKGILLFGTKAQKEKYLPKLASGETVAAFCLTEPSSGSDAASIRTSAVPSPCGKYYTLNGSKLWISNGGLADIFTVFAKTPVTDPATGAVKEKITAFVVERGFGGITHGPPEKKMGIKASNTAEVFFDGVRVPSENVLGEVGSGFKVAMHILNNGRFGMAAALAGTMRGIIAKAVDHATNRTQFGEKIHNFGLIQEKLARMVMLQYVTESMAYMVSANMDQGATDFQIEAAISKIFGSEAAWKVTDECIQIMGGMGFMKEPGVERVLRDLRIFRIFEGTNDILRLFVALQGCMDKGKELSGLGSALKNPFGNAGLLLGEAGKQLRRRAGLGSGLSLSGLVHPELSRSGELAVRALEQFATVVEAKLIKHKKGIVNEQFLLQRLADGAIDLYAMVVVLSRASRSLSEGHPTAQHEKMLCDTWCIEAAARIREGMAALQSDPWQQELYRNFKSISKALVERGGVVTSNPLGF
UniProt P16219: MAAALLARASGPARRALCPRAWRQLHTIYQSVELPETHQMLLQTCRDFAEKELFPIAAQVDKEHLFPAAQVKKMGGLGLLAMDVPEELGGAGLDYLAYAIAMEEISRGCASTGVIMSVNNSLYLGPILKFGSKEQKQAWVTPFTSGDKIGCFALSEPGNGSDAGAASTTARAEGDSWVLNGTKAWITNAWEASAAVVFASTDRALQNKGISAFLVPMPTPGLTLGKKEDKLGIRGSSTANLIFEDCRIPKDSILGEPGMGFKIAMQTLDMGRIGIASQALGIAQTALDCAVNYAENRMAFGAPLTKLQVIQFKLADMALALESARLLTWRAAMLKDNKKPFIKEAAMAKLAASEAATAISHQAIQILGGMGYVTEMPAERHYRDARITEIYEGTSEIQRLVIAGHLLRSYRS

Experiments:
Assay in all cases: log2 fold change, soluble protein after heating vs DMSO (PISA); higher = thermal stabilisation; K562 lysate, 10 uM; active = over 0.2 and 3.5 SD of the protein, either way, in both replicates (recomputed)
[1] = compound: CCCS(=O)(=O)Nc1ccc(F)c(C(=O)c2c[nH]c3ncc(-c4ccc(Cl)cc4)cc23)c1F [vemurafenib]
Summary of the method: (§1)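 Dounce homogenisation of K562 pellets in PBS pH 7.4 with 1 mM MgCl2 produced a crude extract, used at 1 mg/mL protein. Exposure to 10 μM compound lasted 30 min, and aliquots were then heated for 3 min across 48°C-58°C, pooled and brought to 0.5% NP-40 at 4°C. The supernatant after 21,000xg for 90 min was quantified by TMTpro 16plex LC-MS/MS with channel sums equalised. Duplicate values are given as log-two fold change in thermal stability relative to solvent controls.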

[2] = compound: CCCS(=O)(=O)Nc1ccc(F)c(C(=O)c2c[nH]c3ncc(Cl)cc23)c1F
Summary of the method: as §1

[3] = compound: CCN(CCCOc1ccc2c(Nc3cc(CC(=O)Nc4cccc(F)c4)[nH]n3)ncnc2c1)CCOP(=O)(O)O [barasertib]
Summary of the method: as §1

[4] = compound: CC[C@@H]1C(=O)N(C)c2cnc(Nc3ccc(C(=O)NC4CCN(C)CC4)cc3OC)nc2N1C1CCCC1
Summary of the method: as §1

[5] = compound: CC[C@@H]1C(=O)N(C)c2cnc(Nc3ccc(C(=O)N[C@H]4CC[C@H](N5CCN(CC6CC6)CC5)CC4)cc3OC)nc2N1C(C)C [volasertib]
Summary of the method: as §1

[6] = compound: CCn1c(C(=O)N(C2CC2)C2CC2)cc2c3c(ncn3C)c(Nc3cc(C)n(C)n3)nc21
Summary of the method: as §1

[7] = compound: CCn1cc(-c2ccnc3[nH]c(-c4cccc(CN(C)C)c4)cc23)c(-c2ccc(NC(=O)N(C)C)cc2)n1
Summary of the method: as §1

[8] = compound: CN1CCC(CNc2ccc3ncc(-c4cccc(OC(F)(F)F)c4)n3n2)CC1
Summary of the method: as §1

[9] = compound: CN1CCN(CCOc2cc(OC3CCOCC3)c3c(Nc4c(Cl)ccc5c4OCO5)ncnc3c2)CC1 [saracatinib]
Summary of the method: as §1

[10] = compound: CN1CCN(c2nc(C3=C(c4c[nH]c5ccccc45)C(=O)NC3=O)c3ccccc3n2)CC1 [sotrastaurin]
Summary of the method: as §1

[11] = compound: CN1CC[C@H](c2c(O)cc(O)c3c(=O)cc(-c4ccccc4Cl)oc23)[C@H](O)C1 [alvocidib]
Summary of the method: as §1

[12] = compound: CN1CCc2c(c3ccccc3n2Cc2ccc(C(=O)NO)cc2)C1 [Tubastatin A]
Summary of the method: as §1

[13] = compound: CNC(=O)C1=CC=CC=C1NC2=NC(=NC=C2Cl)NC3=C(C=C(C=C3)N4CCOCC4)OC
Summary of the method: as §1

[14] = compound: CNC(=O)c1ccc(Nc2ncc(C(F)(F)F)c(NCc3nccnc3N(C)S(C)(=O)=O)n2)cc1 [defactinib]
Summary of the method: as §1

[15] = compound: CNc1nc(-c2ccc3c(N)n[nH]c3c2)cc(N2C[C@@H](C(=O)NC3CCCCC3)CC[C@H]2C)n1
Summary of the method: as §1

[16] = compound: COC(=O)N[C@@H](C)CNc1nccc(-c2cn(C(C)C)nc2-c2cc(Cl)cc(NS(C)(=O)=O)c2F)n1 [encorafenib]
Summary of the method: as §1

[17] = compound: COC(=O)[C@H](CCSC)NC(=O)C1=C(C=C(C=C1)NC[C@H](CS)N)C2=CC=CC=C2
Summary of the method: as §1

[18] = compound: COc1cc(Nc2ncc3c(n2)-c2ccc(Cl)cc2C(c2c(F)cccc2OC)=NC3)ccc1C(=O)O [alisertib]
Summary of the method: as §1

[19] = compound: COc1cc2nc(-c3cc(F)ccc3O)nc(N[C@@H]3CNC[C@H]3C(C)(C)O)c2cc1OC
Summary of the method: as §1

[20] = compound: COc1cc2ncnc(Nc3ccc(F)c(Cl)c3)c2cc1OCCCN1CCOCC1 [gefitinib]
Summary of the method: as §1

Measured: log2 fold change

ABCC4 (UniProt O15439)
inactive: [1] 0.064 | [2] 0.039 | [3] 0.026 | [4] 0.045 | [5] 0.047 | [6] -0.018 | [7] -0.083 | [8] 0.051 | [9] 0.016 | [10] -0.005 | [11] -0.02 | [12] 0.021 | [13] 0.015 | [14] -0.01 | [15] 0.018 | [16] 0.007 | [17] 0.005 | [18] -0.017 | [19] 0.026 | [20] 0.008

ABCC1 (UniProt P33527)
inactive: [1] -0.016 | [2] 0.015 | [3] -0.016 | [4] 0.006 | [5] 0.016 | [6] 0.012 | [7] -0.032 | [8] 0.02 | [9] 0.022 | [10] -0.014 | [11] -0.003 | [12] 0.017 | [13] -0.024 | [14] -0.02 | [15] 0.017 | [16] 0.009 | [17] 0.03 | [18] 0.027 | [19] -0.029 | [20] -0.063

ACLY (UniProt P53396)
inactive: [1] 0.017 | [2] 0.01 | [3] -0.003 | [4] -0.035 | [5] -0.031 | [6] -0.003 | [7] -0.049 | [8] 0.026 | [9] -0.007 | [10] 0.016 | [11] 0.022 | [12] 0.078 | [13] -0.006 | [14] -0.036 | [15] 0.01 | [16] -0.043 | [17] 0.133 | [18] 0.016 | [19] 0.003 | [20] 0.004

A0A0B4J2A0, A0A0B4J2A0
inactive: [1] -0.004 | [2] 0.057 | [3] 0.022 | [4] 0.046 | [5] -0.015 | [6] -0.043 | [7] -0.017 | [8] -0.006 | [9] 0.009 | [10] 0.042 | [11] -0.003 | [12] -0.002 | [13] -0.016 | [14] 0.027 | [15] 0.026 | [16] 0.028 | [17] 0.005 | [18] -0.045 | [19] 0.013 | [20] 0

AAR2 (UniProt Q9Y312)
inactive: [1] 0.032 | [2] 0.03 | [3] 0.011 | [4] -0.029 | [5] 0.005 | [6] -0.007 | [7] 0.022 | [8] 0.001 | [9] -0.017 | [10] 0 | [11] 0.044 | [12] 0.021 | [13] -0.036 | [14] -0.009 | [15] 0.023 | [16] 0.038 | [17] -0.012 | [18] 0.033 | [19] -0.009 | [20] -0.029

Reprinted from above (2 entries):
ACLY (UniProt P53396)
inactive: [1] 0.017 | [2] 0.01 | [3] -0.003 | [4] -0.035 | [5] -0.031 | [6] -0.003 | [7] -0.049 | [8] 0.026 | [9] -0.007 | [10] 0.016 | [11] 0.022 | [12] 0.078 | [13] -0.006 | [14] -0.036 | [15] 0.01 | [16] -0.043 | [17] 0.133 | [18] 0.016 | [19] 0.003 | [20] 0.004

A0A0B4J2A0, A0A0B4J2A0
inactive: [1] -0.004 | [2] 0.057 | [3] 0.022 | [4] 0.046 | [5] -0.015 | [6] -0.043 | [7] -0.017 | [8] -0.006 | [9] 0.009 | [10] 0.042 | [11] -0.003 | [12] -0.002 | [13] -0.016 | [14] 0.027 | [15] 0.026 | [16] 0.028 | [17] 0.005 | [18] -0.045 | [19] 0.013 | [20] 0

The listing continues.

ABRAXAS1 (UniProt Q6UWZ7)
inactive: [1] 0.009 | [2] -0.016 | [3] 0.046 | [4] 0.082 | [5] -0.034 | [6] -0.007 | [7] -0.072 | [8] 0.009 | [9] 0.12 | [10] 0.023 | [11] 0.014 | [12] -0.102 | [13] 0.025 | [14] 0.054 | [15] -0.051 | [16] 0.002 | [17] -0.024 | [18] -0.108 | [19] -0.044 | [20] -0.068

ACADVL isoform 3 (UniProt P49748)
inactive: [1] -0.014 | [2] 0 | [3] -0.028 | [4] 0.083 | [5] 0.054 | [6] 0.005 | [7] -0.04 | [8] 0.058 | [9] -0.048 | [10] 0.009 | [11] -0.009 | [12] 0.032 | [13] -0.075 | [14] -0.033 | [15] 0.042 | [16] -0.008 | [17] 0.014 | [18] -0.015 | [19] -0.002 | [20] 0.01

ACADS (UniProt P16219)
inactive: [1] 0.023 | [2] 0.017 | [3] 0.006 | [4] -0.039 | [5] -0.016 | [6] -0.02 | [7] 0.016 | [8] 0.003 | [9] -0.026 | [10] -0.026 | [11] -0.011 | [12] -0.003 | [13] 0.019 | [14] -0.011 | [15] 0.014 | [16] -0.034 | [17] 0.071 | [18] -0.003 | [19] -0.037 | [20] -0.023
